Measurements: publication PMC7511232 (eLife, 2020)
No constants are given. Whether binding was seen depends on the method and setting. For some assays here: In cells and extracts the contact can be indirect. Some binding calls cover weakened binding; strength is not graded here. Where a sequence is shown, tags or fusion partners need not be part of it.

Key:
[1] = target: Atg11(522-583), fusions with GFP and mCherry (S. pombe) (UniProt O14261); test: co-IP
[2] = target: full-length Atg11 tagged with YFP and mCherry respectively (S. pombe) (UniProt O14261); test: co-IP
[3] = target: Atg11(546-583), fusions with GFP and mCherry (S. pombe) (UniProt O14261); test: co-IP
[4] = target: Atg11(522-583), yeast two-hybrid fusion (S. pombe) (UniProt O14261); test: two-hybrid
[5] = target: Atg11(546-583), yeast two-hybrid fusion (S. pombe) (UniProt O14261); test: two-hybrid
[6] = target: Atg11(522-552), yeast two-hybrid fusion (S. pombe) (UniProt O14261); test: two-hybrid
[7] = target: Atg11(522-552), fusions with GFP and mCherry (S. pombe) (UniProt O14261); test: co-IP
[8] = target: Atg11(546-583)Δ tagged with GFP and mCherry respectively (S. pombe) (UniProt O14261); test: co-IP

B1: Atg11(522-583), fusions with GFP and mCherry (domain or fragment, UniProt O14261 522-583)
chain: SSQPFYRVSPSIVPLNVIRKLTNRKTSFTDSHILRLQDEVNQLRNELDLVNKRNEDLLIELQ
binding [1]: binds

B2: full-length Atg11 tagged with YFP and mCherry respectively (protein, UniProt O14261 1-926)
chain: MRFRLNDSFSGKSWTIDNVQWTPQNLVAWIMELNIGLSDEAKLLLPNGMSLNETVLNSESDVVIYVLDQNLLTFTYDGDKIPSIPSLKGQPISNVLTGIIADSSSDQWKDKISKCLSLLSDILESSSKIHNQLSVCHDEYSTSIVSPEVAMNYLQRRQSGMKDLLFVFYERLDRVSVSDLLHDFLALPTGSLPITPLKILSTNWTKLDSWLNSISARYAEAQKRVQQCIGAANSIIVSPFKEVPSIKEGDDAYYHLRSVAQDAANILQEILKIESTSTTSQIKPKCNYETEITDCMEKLQSNLSELKSSRKSSLISLKSFWLSFYKVSLRYDALYEYLRQIAEELDRSKFVLSQSRNIFSLYIDILMEALRRTEWQESYNVSHDSSLPLDQEKELSLRKSWLSHFSNLLFNHGQLKYLPVLTRDEISNYLLNIQAHPNYQTFHQMLSNRLSEYLGFPGSPREAVSNTVQANNSLHEKLAMYQNRCNNLEAMLSHQNGFNYNINNDGLSPNAPHPPINEQSNSSQPFYRVSPSIVPLNVIRKLTNRKTSFTDSHILRLQDEVNQLRNELDLVNKRNEDLLIELQGKEEKIQYLETENEEVLQKYENLQEELSSTRKLLTKNEAAVAEQQSNEEMHSNEPNILNLYSVFEGKVDSLQELYNAFKLQLTSLKQKGEYATLAKDAEAVQHIIEERDYALAEKADLLKLSENRKEQCKILTQKLYTIVFRCNELQSVLRECVTQPGFDSDNERDGHASIPDRQIEFNSKDLQYLYWMDGEDADRNFQEFLNRMSSLDFDSFHNFVVSVLTQAHNHELRWKREFQSNRDKALKAILDSQSKVSLRNFKQGSLVLFLPTRRTAGNKKVWAAFNVNAPHYYLNTQPHLKLESRDWMLGRVTSIEDRTADDSTDKWLRLPSGTIWHLVEAIDERF
binding [2]: binds

B3: Atg11(546-583), fusions with GFP and mCherry (domain or fragment, UniProt O14261 546-583)
chain: KTSFTDSHILRLQDEVNQLRNELDLVNKRNEDLLIELQ
binding [3]: binds

B4: Atg11(522-583), yeast two-hybrid fusion (domain or fragment, UniProt O14261 522-583)
chain: B1 chain
binding [4]: binds

B5: Atg11(546-583), yeast two-hybrid fusion (domain or fragment, UniProt O14261 546-583)
chain: B3 chain
binding [5]: binds

B6: Atg11(522-552), yeast two-hybrid fusion (domain or fragment, UniProt O14261 522-552)
chain: SSQPFYRVSPSIVPLNVIRKLTNRKTSFTDS
binding [6]: no binding

B7: Atg11(522-552), fusions with GFP and mCherry (domain or fragment, UniProt O14261 522-552)
chain: B6 chain
binding [7]: no binding

B8: Atg11(546-583)Δ tagged with GFP and mCherry respectively (protein, UniProt O14261)
chain: MRFRLNDSFSGKSWTIDNVQWTPQNLVAWIMELNIGLSDEAKLLLPNGMSLNETVLNSESDVVIYVLDQNLLTFTYDGDKIPSIPSLKGQPISNVLTGIIADSSSDQWKDKISKCLSLLSDILESSSKIHNQLSVCHDEYSTSIVSPEVAMNYLQRRQSGMKDLLFVFYERLDRVSVSDLLHDFLALPTGSLPITPLKILSTNWTKLDSWLNSISARYAEAQKRVQQCIGAANSIIVSPFKEVPSIKEGDDAYYHLRSVAQDAANILQEILKIESTSTTSQIKPKCNYETEITDCMEKLQSNLSELKSSRKSSLISLKSFWLSFYKVSLRYDALYEYLRQIAEELDRSKFVLSQSRNIFSLYIDILMEALRRTEWQESYNVSHDSSLPLDQEKELSLRKSWLSHFSNLLFNHGQLKYLPVLTRDEISNYLLNIQAHPNYQTFHQMLSNRLSEYLGFPGSPREAVSNTVQANNSLHEKLAMYQNRCNNLEAMLSHQNGFNYNINNDGLSPNAPHPPINEQSNSSQPFYRVSPSIVPLNVIRKLTNRGKEEKIQYLETENEEVLQKYENLQEELSSTRKLLTKNEAAVAEQQSNEEMHSNEPNILNLYSVFEGKVDSLQELYNAFKLQLTSLKQKGEYATLAKDAEAVQHIIEERDYALAEKADLLKLSENRKEQCKILTQKLYTIVFRCNELQSVLRECVTQPGFDSDNERDGHASIPDRQIEFNSKDLQYLYWMDGEDADRNFQEFLNRMSSLDFDSFHNFVVSVLTQAHNHELRWKREFQSNRDKALKAILDSQSKVSLRNFKQGSLVLFLPTRRTAGNKKVWAAFNVNAPHYYLNTQPHLKLESRDWMLGRVTSIEDRTADDSTDKWLRLPSGTIWHLVEAIDERF
binding [8]: no binding
